The values that follow come from US20210290602A1.

Amino acid sequences for entries named in this document (tags omitted).
UniProt P60880: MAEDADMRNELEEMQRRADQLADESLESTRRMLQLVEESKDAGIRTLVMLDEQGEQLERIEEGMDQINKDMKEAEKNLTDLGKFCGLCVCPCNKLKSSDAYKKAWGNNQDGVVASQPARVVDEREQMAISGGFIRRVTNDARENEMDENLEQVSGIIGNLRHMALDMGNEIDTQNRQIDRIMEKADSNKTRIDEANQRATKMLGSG

Results are given in words; binding and its absence hold for the method and conditions named. In cells and extracts the contact can be indirect. Some results given as binding are weak or reduced against the parent protein; the word gives no strength.

This assay deals with SNAP-25 (endogenous, human induced neurons) (human) (UniProt P60880). The experiment in a line: co-immunoprecipitation with anti-SNAP-25 antibody from iN extracts, quantitative immunoblot.

B1: endogenous CSPα of WT induced neurons (iNs) from an unaffected individual (protein, human, UniProt Q9H3Z4 1-198, looked up)
chain: MADQRQRSLSTSGESLYHVLGLDKNATSDDIKKSYRKLALKYHPDKNPDNPEAADKFKEINNAHAILTDATKRNIYDKYGSLGLYVAEQFGEENVNTYFVLSSWWAKALFVFCGLLTCCYCCCCLCCCFNCCCGKCKPKAPEGEETEFYVSPEDLEAQLQSDEREATDTPIVIQPASATETTQLTADSHPSYHTDGFN
modifications: Cys-string palmitoylated
B1: the binding entry was “binds”.
